# The other results are listed elsewhere or left out.
# Compound: CC1Cc2ccccc2N1C(=O)C1CCCN(C1)C(=O)CCl (mixture of isomers) [TRIM25 ligand 11 (diastereomer mixture)]
# Test: probe-labelled cysteine peptide fold change vs DMSO (competition) (log2 fold change); higher = less target engagement (more negative = stronger competition)
# Conditions: THP-1, incubation time: 4 h
# 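Also: competitive chemoproteomic profiling in live THP-1 cells with an iodoacetamide desthiobiotin (IA-DTB) probe, comparing probe-labelled peptide intensities in compound-treated cells against DMSO-treated controls.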
Target,probe-labelled cysteine peptide fold change (10 µM),probe-labelled cysteine peptide fold change (50 µM)
DIAPH3_Q9NSV4_249_VIQCLK (UniProt Q9NSV4),0.0243,0.0391
DIAPH2_O60879_484_LDIDLTHLIDSCVNK (UniProt O60879),0.0266,0.095
DIDO1_Q9BTC0_455_CGAQAGIK (UniProt Q9BTC0),-0.117,-0.185
DHX33_Q9H6R0_319_HLPDGCPAMLVLPLYASLPYAQQLR (UniProt Q9H6R0),0.167,0.109
DHX30_Q7L2E3_606_YFGGCPVIK (UniProt Q7L2E3),0.136,0.124
DHX58_Q96C10_322_TQILCAER (UniProt Q96C10),0.0599,-0.121
DIS3L2_Q8IYB7_146_ETEAAYESDIPEELCGHHLPQQSLK (UniProt Q8IYB7),0.175,-0.159
DKC1_O60832_74_TTHYTPLACGSNPLK (UniProt O60832),0.00323,-0.115
DHX40_Q8IX18_153_YMTDGCLLK (UniProt Q8IX18),0.0746,0.0436
DHX15_O43143_774_IAPQYYDMSNFPQCEAK (UniProt O43143),0.00644,-0.154
DNM1_Q05193_427_CVDMVISELISTVR (UniProt Q05193),-0.0454,0.145
DLD_P09622_484_VCHAHPTLSEAFR (UniProt P09622),0.111,-0.123
DHX37_Q8IY37_486_MLPAGGILVFLTGQAEVHALCR (UniProt Q8IY37),0.281,0.563
DHTKD1_Q96HY7_392_LVGCAIIHVNGDSPEEVVR (UniProt Q96HY7),0.134,0.117
DMXL2_Q8TDJ6_2880_NVCLWDTLISPGNSLIHGFTCHDHGATVLQYAPK (UniProt Q8TDJ6),0.159,-0.375
DIAPH3_Q9NSV4_1125_SHYNINCNSTR (UniProt Q9NSV4),-0.152,-0.115
DNM2_P50570-3_427_CVDLVVSELATVIK (UniProt P50570),-0.0402,0.0756
DNM1L_O00429_505_HPDFADACGLMNNNIEEQR (UniProt O00429),-0.17,-0.224
DHX15_O43143_174_TTQIPQWCVEYMR (UniProt O43143),-0.151,0.0488
DNM1L_O00429_470_LHDAIVEVVTCLLR (UniProt O00429),-0.0388,-0.00916
DIS3L2_Q8IYB7_216_DETTCISQDTR (UniProt Q8IYB7),-0.0346,-0.112

Target,probe-labelled cysteine peptide fold change (10 µM),probe-labelled cysteine peptide fold change (50 µM)
DIAPH1_O60610_1027_MTLLHFLAELCENDYPDVLKFPDELAHVEK (UniProt O60610),-0.189,-0.171
DIS3L2_Q8IYB7_797_IYCNALALR (UniProt Q8IYB7),0.0363,0.154
DNAJA1_P31689_149+150+153_GAVECCPNCR (UniProt P31689),0.0602,0.0884
DHX30_Q7L2E3_535_GGALLFCTVGILLR (UniProt Q7L2E3),-0.555,0.0894
DNASE2_O00115_299_WCVSPK (UniProt O00115),-0.0971,0.0817
DNAAF5_Q86Y56_365_ILPALCHDITDWVVGTR (UniProt Q86Y56),-0.0161,-0.00308
DIS3L2_Q8IYB7_739_QADHCNDR (UniProt Q8IYB7),0.0961,0.0406
DNAJC21_Q5F1R6_3_CHYEALGVR (UniProt Q5F1R6),0.017,0.0575
DHX9_Q08211_940_FCEHKR (UniProt Q08211),-0.0475,0.0337
DIS3_Q9Y2L1_562_LAFSCIWEMNHNAEILK (UniProt Q9Y2L1),0.165,0.183
DIS3L_Q8TF46_482_GCEDVDDTLSVR (UniProt Q8TF46),-0.134,-0.0752
DIS3L_Q8TF46_88_GIIFMQTACQAVQHQR (UniProt Q8TF46),0.0869,0.0605
DIAPH1_O60610_164_DMPLLSCLESLR (UniProt O60610),-0.149,0.0143
DHX36_Q9H2U1_836_AVICAGLYPK (UniProt Q9H2U1),0.0714,-0.0504
DHX15_O43143_644_QNHESVQWCYDNFINYR (UniProt O43143),0.237,0.162
DHX37_Q8IY37_274_LKLPILSEEQVIMEAVAEHPIVIVCGETGSGK (UniProt Q8IY37),0.00405,-0.0532
DLGAP5_Q15398_492_QFEGLVDDCEYKR (UniProt Q15398),-0.0897,-0.00217
DHX57_Q6P158_598_VANIICTQPR (UniProt Q6P158),-0.0517,-0.0882
DNAJC11_Q9NVH1_494_VIDVTVPLQCLVK (UniProt Q9NVH1),0.188,0.206
DNAJB1_P25685_179_VSLEEIYSGCTK (UniProt P25685),0.0963,0.00761
DHX29_Q7Z478_648_VCDELGCENGPGGR (UniProt Q7Z478),0.144,0.0951

Target,probe-labelled cysteine peptide fold change (10 µM),probe-labelled cysteine peptide fold change (50 µM)
DNAJC16_Q9Y2G8_709_YFCLFKPQK (UniProt Q9Y2G8),-0.116,-0.179
DICER1_Q9UPY3_801_CFGILTAKPIPQIPHFPVYTR (UniProt Q9UPY3),-0.0745,-0.035
DNAJC2_Q99543_276_TLVDNAYSCDPR (UniProt Q99543),-0.0127,-0.0992
DHX29_Q7Z478_749_FSTYFTHCPILR (UniProt Q7Z478),0.134,0.225
DHX29_Q7Z478_1019_VPLEELCLHIMK (UniProt Q7Z478),-0.0744,0.119
DNASE2_O00115_327_GGGTLCAQLPALWK (UniProt O00115),-0.0717,-0.0161
DIP2A_Q14689_6_GCPLEAAPLPAEVR (UniProt Q14689),-0.175,-0.385
DHX9_Q08211_242_LAAQSCALSLVR (UniProt Q08211),0.0548,0.166
DNAJC7_Q99615_317_KLDDAIEDCTNAVK (UniProt Q99615),0.0924,0.0175
DNM1L_O00429_431_CVELVHEEMQR (UniProt O00429),0.0335,-0.103
DNAJC2_Q99543_26_GTAITHALTSASTLCQVEPVGR (UniProt Q99543),-0.126,-0.0558
DNM1L_O00429_505_HPDFADACGLMNNNIEEQRR (UniProt O00429),-0.0202,-0.151
DLGAP5_Q15398_381_TIQQDSNKLPCPLGPLTVWHEEHVLNK (UniProt Q15398),-0.231,-0.00596
DNAJC13_O75165_2110_RADTVGLACEAINR (UniProt O75165),-0.112,-0.0276
DHX30_Q7L2E3_786_CQSGFAYHLFPR (UniProt Q7L2E3),0.0345,0.267
DHX29_Q7Z478_1059_KIGACELNEPK (UniProt Q7Z478),-0.146,-0.0427
DHX37_Q8IY37_1116_ADCHEALLAAWK (UniProt Q8IY37),-0.0518,-0.0211
DHX35_Q9H5Z1_233_FRDFFNQNETSDPARDTCVILTVEGR (UniProt Q9H5Z1),0.0474,0.193
DHX29_Q7Z478_659_NSLCGYQIR (UniProt Q7Z478),0.0451,0.113
DHCR24_Q15392_393_CLQQALHTFQNDIHVYPIWLCPFILPSQPGLVHPK (UniProt Q15392),0.14,-0.425
DIAPH1_O60610_964_LQFSEQVENIKPEIVSVTAACEELRK (UniProt O60610),0.114,0.136

Target,probe-labelled cysteine peptide fold change (10 µM),probe-labelled cysteine peptide fold change (50 µM)
DNM1_Q05193_607_QLELACETQEEVDSWK (UniProt Q05193),-0.108,-0.145
DMTF1_Q9Y222_271_DRCRLMKDTCNTGK (UniProt Q9Y222),0.0432,0.134
DMXL1_Q9Y485_458_ELGCDK (UniProt Q9Y485),-0.0601,-0.109
DHX36_Q9H2U1_977_SRDCAVLSAIIDLIK (UniProt Q9H2U1),-0.0479,-0.156
DKC1_O60832_220_LGIFWVSCEAGTYIR (UniProt O60832),0.18,0.371
DIAPH2_O60879_821_LTFEEHINNIKPSIIAVTLACEELK (UniProt O60879),0.0764,0.000837
DMXL2_Q8TDJ6_1897_VGCPVLALEVLSK (UniProt Q8TDJ6),0.128,0.0139
DNMT1_P26358_1071_CTVEYGEDLPECVQVYSMGGPNR (UniProt P26358),0.0764,-0.0599
DHX15_O43143_190_GVACTQPR (UniProt O43143),0.175,0.239
DLD_P09622_306_AEVITCDVLLVCIGR (UniProt P09622),0.0832,-0.0372
DLEC1_Q9Y238_256_LEDSCR (UniProt Q9Y238),0.892,0.979
DHX38_Q92620_1072+1074_CICAAYFHQAAK (UniProt Q92620),0.0551,-0.0197
DHX40_Q8IX18_497_LGLSMVEFPLPPHLTCAVIK (UniProt Q8IX18),0.107,0.0568
DHX15_O43143_774_IAPQYYDMSNFPQCEAKR (UniProt O43143),-0.432,-0.211
DNAJA1_P31689_177_IHQIGPGMVQQIQSVCMECQGHGER (UniProt P31689),0.112,0.0675
DNM1L_O00429_300_LLMHHIRDCLPELK (UniProt O00429),-0.355,-0.178
DIEXF_Q68CQ4_311_HVYCLHVINHILK (UniProt Q68CQ4),-0.0501,0.0785
DLD_P09622_85_NETLGGTCLNVGCIPSK (UniProt P09622),0.242,0.0374

# Source: the supplement of paper PMC12067093, “Discovery and optimisation of a covalent ligand for TRIM25 and its application to targeted protein ubiquitination” (Chemical Science, 2025)
